Experiment [1] addresses T1, GST-tagged Gorab (Drosophila) (UniProt Q8IQQ4).
T1 sequence: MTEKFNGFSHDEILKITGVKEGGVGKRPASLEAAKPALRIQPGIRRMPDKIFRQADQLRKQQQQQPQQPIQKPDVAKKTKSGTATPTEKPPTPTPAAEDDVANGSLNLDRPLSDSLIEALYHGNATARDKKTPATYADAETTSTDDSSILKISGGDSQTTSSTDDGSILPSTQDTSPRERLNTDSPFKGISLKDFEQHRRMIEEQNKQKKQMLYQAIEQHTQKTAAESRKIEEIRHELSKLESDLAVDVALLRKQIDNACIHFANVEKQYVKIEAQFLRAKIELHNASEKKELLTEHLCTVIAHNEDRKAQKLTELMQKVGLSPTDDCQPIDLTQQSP
The experiment can be described thus: pull-down.

Experiment [2] addresses T2, GST-tagged Sas6 (Drosophila) (UniProt Q9VAC8).
T2 sequence: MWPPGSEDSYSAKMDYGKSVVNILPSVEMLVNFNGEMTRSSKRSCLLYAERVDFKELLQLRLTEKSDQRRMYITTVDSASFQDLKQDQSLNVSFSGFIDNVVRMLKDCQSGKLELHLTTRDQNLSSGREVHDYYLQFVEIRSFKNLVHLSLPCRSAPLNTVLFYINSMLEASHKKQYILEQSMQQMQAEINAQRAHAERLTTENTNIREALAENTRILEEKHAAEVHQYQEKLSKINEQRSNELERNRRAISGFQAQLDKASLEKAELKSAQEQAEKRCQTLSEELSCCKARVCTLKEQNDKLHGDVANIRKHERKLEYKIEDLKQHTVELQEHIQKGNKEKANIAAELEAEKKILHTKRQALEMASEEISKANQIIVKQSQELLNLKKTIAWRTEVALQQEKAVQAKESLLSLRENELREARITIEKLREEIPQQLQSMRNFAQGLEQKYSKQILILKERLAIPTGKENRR
The experiment can be described thus: pull-down.

The target of experiment [3] is T3, Gorab^ΔSID tagged with GFP (transient transfection) (Drosophila) (UniProt Q8IQQ4).
T3 sequence: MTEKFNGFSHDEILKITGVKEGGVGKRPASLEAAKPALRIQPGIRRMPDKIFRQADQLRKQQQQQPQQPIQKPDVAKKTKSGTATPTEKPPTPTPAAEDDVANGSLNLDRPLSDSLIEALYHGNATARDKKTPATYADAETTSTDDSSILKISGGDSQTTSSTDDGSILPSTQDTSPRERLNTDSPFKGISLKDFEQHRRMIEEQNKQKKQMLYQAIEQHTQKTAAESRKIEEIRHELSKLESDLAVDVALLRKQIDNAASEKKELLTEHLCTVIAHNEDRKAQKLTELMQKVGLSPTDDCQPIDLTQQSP
The experiment can be described thus: co-IP.

For experiment [4], the target named is T4, full length Gorab tagged with GFP (transient transfection) (Drosophila) (UniProt Q8IQQ4).
T4 sequence: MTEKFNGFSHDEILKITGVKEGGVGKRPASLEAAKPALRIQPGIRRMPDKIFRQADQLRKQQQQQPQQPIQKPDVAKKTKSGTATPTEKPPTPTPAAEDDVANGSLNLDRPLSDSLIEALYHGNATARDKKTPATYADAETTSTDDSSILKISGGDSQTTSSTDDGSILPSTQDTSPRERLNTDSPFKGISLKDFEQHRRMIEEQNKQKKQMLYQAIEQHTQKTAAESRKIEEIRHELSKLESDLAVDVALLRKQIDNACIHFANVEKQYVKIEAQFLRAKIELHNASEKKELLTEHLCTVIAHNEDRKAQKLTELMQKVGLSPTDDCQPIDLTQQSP
The experiment can be described thus: co-IP.

These are yes or no findings as the source states them, for the method shown. Binding seen in cells or lysates may run through a third protein. Some entries that bind do so weakly or less than the wild type. Tags and fused reporters may be left off the sequences shown.

B1: 35S-labelled Sas6 fragment 351-462 (Gorab Interacting Region) (domain or fragment, UniProt Q9VAC8 351-462)
chain: AEKKILHTKRQALEMASEEISKANQIIVKQSQELLNLKKTIAWRTEVALQQEKAVQAKESLLSLRENELREARITIEKLREEIPQQLQSMRNFAQGLEQKYSKQILILKERL
modifications: 35S label
For the molecule B1, the binding entry in experiment [1] was “binds”.

B2: 35S-Met-labeled Gorab 27aa deletion aa260-286 (ΔSID) (protein, UniProt Q8IQQ4)
chain: MTEKFNGFSHDEILKITGVKEGGVGKRPASLEAAKPALRIQPGIRRMPDKIFRQADQLRKQQQQQPQQPIQKPDVAKKTKSGTATPTEKPPTPTPAAEDDVANGSLNLDRPLSDSLIEALYHGNATARDKKTPATYADAETTSTDDSSILKISGGDSQTTSSTDDGSILPSTQDTSPRERLNTDSPFKGISLKDFEQHRRMIEEQNKQKKQMLYQAIEQHTQKTAAESRKIEEIRHELSKLESDLAVDVALLRKQIDNAASEKKELLTEHLCTVIAHNEDRKAQKLTELMQKVGLSPTDDCQPIDLTQQSP
modifications: 35S-methionine label
In the case of B2, the binding result in experiment [2] was “no binding”.

B3: 35S-Met-labeled Gorab deletion aa282-286 (protein, UniProt Q8IQQ4)
chain: MTEKFNGFSHDEILKITGVKEGGVGKRPASLEAAKPALRIQPGIRRMPDKIFRQADQLRKQQQQQPQQPIQKPDVAKKTKSGTATPTEKPPTPTPAAEDDVANGSLNLDRPLSDSLIEALYHGNATARDKKTPATYADAETTSTDDSSILKISGGDSQTTSSTDDGSILPSTQDTSPRERLNTDSPFKGISLKDFEQHRRMIEEQNKQKKQMLYQAIEQHTQKTAAESRKIEEIRHELSKLESDLAVDVALLRKQIDNACIHFANVEKQYVKIEAQFLRAKASEKKELLTEHLCTVIAHNEDRKAQKLTELMQKVGLSPTDDCQPIDLTQQSP
modifications: 35S-methionine label
For the molecule B3, the binding entry in experiment [2] is “binds”.

B4: 35S-Met-labelled full-length Sas6 (protein, UniProt Q9VAC8 1-472)
chain: MWPPGSEDSYSAKMDYGKSVVNILPSVEMLVNFNGEMTRSSKRSCLLYAERVDFKELLQLRLTEKSDQRRMYITTVDSASFQDLKQDQSLNVSFSGFIDNVVRMLKDCQSGKLELHLTTRDQNLSSGREVHDYYLQFVEIRSFKNLVHLSLPCRSAPLNTVLFYINSMLEASHKKQYILEQSMQQMQAEINAQRAHAERLTTENTNIREALAENTRILEEKHAAEVHQYQEKLSKINEQRSNELERNRRAISGFQAQLDKASLEKAELKSAQEQAEKRCQTLSEELSCCKARVCTLKEQNDKLHGDVANIRKHERKLEYKIEDLKQHTVELQEHIQKGNKEKANIAAELEAEKKILHTKRQALEMASEEISKANQIIVKQSQELLNLKKTIAWRTEVALQQEKAVQAKESLLSLRENELREARITIEKLREEIPQQLQSMRNFAQGLEQKYSKQILILKERLAIPTGKENRR
modifications: 35S-methionine label
As for B4, the binding entry in experiment [1] is given as “binds”.

B5: myc-tagged Sas6 (protein, UniProt Q9VAC8 1-472)
chain: MWPPGSEDSYSAKMDYGKSVVNILPSVEMLVNFNGEMTRSSKRSCLLYAERVDFKELLQLRLTEKSDQRRMYITTVDSASFQDLKQDQSLNVSFSGFIDNVVRMLKDCQSGKLELHLTTRDQNLSSGREVHDYYLQFVEIRSFKNLVHLSLPCRSAPLNTVLFYINSMLEASHKKQYILEQSMQQMQAEINAQRAHAERLTTENTNIREALAENTRILEEKHAAEVHQYQEKLSKINEQRSNELERNRRAISGFQAQLDKASLEKAELKSAQEQAEKRCQTLSEELSCCKARVCTLKEQNDKLHGDVANIRKHERKLEYKIEDLKQHTVELQEHIQKGNKEKANIAAELEAEKKILHTKRQALEMASEEISKANQIIVKQSQELLNLKKTIAWRTEVALQQEKAVQAKESLLSLRENELREARITIEKLREEIPQQLQSMRNFAQGLEQKYSKQILILKERLAIPTGKENRR
Consider B5, for which the results for the binding result in experiment [3] and in experiment [4] were “no binding” and “binds”, respectively.

B6: 35S-Met-labeled full length Gorab (protein, UniProt Q8IQQ4 1-338)
chain: MTEKFNGFSHDEILKITGVKEGGVGKRPASLEAAKPALRIQPGIRRMPDKIFRQADQLRKQQQQQPQQPIQKPDVAKKTKSGTATPTEKPPTPTPAAEDDVANGSLNLDRPLSDSLIEALYHGNATARDKKTPATYADAETTSTDDSSILKISGGDSQTTSSTDDGSILPSTQDTSPRERLNTDSPFKGISLKDFEQHRRMIEEQNKQKKQMLYQAIEQHTQKTAAESRKIEEIRHELSKLESDLAVDVALLRKQIDNACIHFANVEKQYVKIEAQFLRAKIELHNASEKKELLTEHLCTVIAHNEDRKAQKLTELMQKVGLSPTDDCQPIDLTQQSP
modifications: 35S-methionine label
With B6, the binding entry in experiment [2] is reported as “binds”.

B7: 35S-Met-labeled Gorab fragment 191-318 (minimal Sas6 interacting region) (domain or fragment, UniProt Q8IQQ4 191-318)
chain: SLKDFEQHRRMIEEQNKQKKQMLYQAIEQHTQKTAAESRKIEEIRHELSKLESDLAVDVALLRKQIDNACIHFANVEKQYVKIEAQFLRAKIELHNASEKKELLTEHLCTVIAHNEDRKAQKLTELMQ
modifications: 35S-methionine label
On to B7, for which the binding result in experiment [2] is reported as “binds”.

B8: 35S-Met-labeled Gorab deletion aa267-281 (protein, UniProt Q8IQQ4)
chain: MTEKFNGFSHDEILKITGVKEGGVGKRPASLEAAKPALRIQPGIRRMPDKIFRQADQLRKQQQQQPQQPIQKPDVAKKTKSGTATPTEKPPTPTPAAEDDVANGSLNLDRPLSDSLIEALYHGNATARDKKTPATYADAETTSTDDSSILKISGGDSQTTSSTDDGSILPSTQDTSPRERLNTDSPFKGISLKDFEQHRRMIEEQNKQKKQMLYQAIEQHTQKTAAESRKIEEIRHELSKLESDLAVDVALLRKQIDNACIHFANVIELHNASEKKELLTEHLCTVIAHNEDRKAQKLTELMQKVGLSPTDDCQPIDLTQQSP
modifications: 35S-methionine label
Regarding B8, the binding result in experiment [2] was “binds”.

B9: 35S-Met-labeled Gorab deletion aa260-266 (protein, UniProt Q8IQQ4)
chain: MTEKFNGFSHDEILKITGVKEGGVGKRPASLEAAKPALRIQPGIRRMPDKIFRQADQLRKQQQQQPQQPIQKPDVAKKTKSGTATPTEKPPTPTPAAEDDVANGSLNLDRPLSDSLIEALYHGNATARDKKTPATYADAETTSTDDSSILKISGGDSQTTSSTDDGSILPSTQDTSPRERLNTDSPFKGISLKDFEQHRRMIEEQNKQKKQMLYQAIEQHTQKTAAESRKIEEIRHELSKLESDLAVDVALLRKQIDNAEKQYVKIEAQFLRAKIELHNASEKKELLTEHLCTVIAHNEDRKAQKLTELMQKVGLSPTDDCQPIDLTQQSP
modifications: 35S-methionine label
As for B9, the binding entry in experiment [2] was “binds”.

(Values after article doi:10.1101/232272.)
